At least one structure is not confirmed: it was looked up by name or label, or the drawing left a doubt.
Legend:
[1] = tested on: influenza virus A/Udorn/72 H3N2 strain; assay: influenza focus-forming assay in 293 cells; format: cell-based
[2] = tested on: influenza virus strains A/Puerto Rico/8/1934 (PR8); assay: mouse influenza model; format: in vivo; settings: for flu replication in the lung (flu RNA by PCR): 20 mg/kg intranasal, lung 72 hours after infection, FIG. 7E
MHV = assay: mouse coronavirus (MHV) model; format: in vivo; settings: 10 mg/kg in 10% HPBCD intranasal, daily, FIG. 7B
DNV type 2 strain = assay: mouse DNV model; format: in vivo; settings: IP 10 mg/kg/day, FIG. 7D

In the case of `CC(C)(C)c1ccc(-c2coc3cc(OS(C)(=O)=O)ccc3c2=O)cc1` [KIN269], the “antiviral activity compared with KIN101 (viral titer)” value ([1]; FIG. 3A) is reported as “improved on this antiviral activity”, the “viral infection of 293 cells (decrease in foci, dose dependence)” value ([1]; FIGS. 3A, 3B) is reported as “dose-dependent decreases in viral infection” and the “replication and titer of influenza virus in the lung” value ([2]; 10 mg/kg in 10% HPBCD intranasal, daily, FIG. 7A) is reported as “reduces replication and titer”. For the same compound, the “flu replication in the lung (flu RNA by PCR)” value ([2]; +24 hours post (therapeutic) lethal PR8 infection) was “inhibited flu replication in the lung”, the “flu replication in the lung (flu RNA by PCR)” value ([2]; −24 hours prior (prophylactic) to lethal PR8 infection) was “inhibited flu replication in the lung” and the “replication and titer of mouse hepatitis virus (MHV) in the lung” value (MHV) was “reduces replication and titer”. For the same compound, the “DNV as measured in serum” value (DNV type 2 strain) was “inhibited DNV”.
